From patent US20110160146A1, “Conjungation of Small Molecules to Octaarginine Transporters for Overcoming Multi-Drug Resistance” (National Institute of Health (NIH), priority 2008, published 2011)
At least one structure is not confirmed: it was looked up by name or label, or the drawing left a doubt.

Columns and labels:
tubulin = assay: Tubulin polymerization (microtubule assembly) assay; type: biochemical; settings: cell free; 10 μM compound, 2 μM tubulin, 0.5 mM GTP, 30° C.
[1] = test system: OVCA429T cells expressing Renilla luciferase (Pgp efflux); assay: Bioluminescence of Renilla luciferase expressing OVCA429 and OVCA429T cells (Pgp efflux); type: cell-based, human

Structure (SMILES)	ability to polymerize free tubulin (turbidity, absorbance at 350 nm) (tubulin)	effect of preincubation with Pgp inhibitor cyclosporine A on signal in OVCA429T cells ([1]; OVCA429T, Renilla luciferase, 5 μM cyclosporine A)	bioluminescence signal in OVCA429T relative to OVCA429 cells ([1]; cells transfected with Renilla luciferase, without Pgp inhibitor)
CC(=O)O[C@H]1C(=O)[C@@]2(C)[C@H]([C@H](OC(=O)c3ccccc3)[C@]3(O)C[C@H](OC(=O)[C@H](O)[C@@H](NC(=O)c4ccccc4)c4ccccc4)C(C)=C1C3(C)C)[C@]1(OC(C)=O)CO[C@@H]1C[C@@H]2O [compound 1, Taxol, reference compound]	active	–	–
O=c1c(Cc2ccccc2)nc2c(Cc3ccccc3)[nH]c(-c3ccc(O)cc3)cn1-2 [compound 5, Coelenterazine H]	–	overcame the signal reduction	reduced
